Measurements taken from patent US20230295301A1.
Changes are numbered by the printed parent chain. Results are given in words; binding and its absence hold for the method and conditions named. Some results given as binding are weak or reduced against the parent protein; the word gives no strength.

Protein sequences, listed by entry. Tags and fused reporters are not part of them. Lines headed by an entry give the natural chain unless they say otherwise; changes in a name come on top.
UniProt P16410: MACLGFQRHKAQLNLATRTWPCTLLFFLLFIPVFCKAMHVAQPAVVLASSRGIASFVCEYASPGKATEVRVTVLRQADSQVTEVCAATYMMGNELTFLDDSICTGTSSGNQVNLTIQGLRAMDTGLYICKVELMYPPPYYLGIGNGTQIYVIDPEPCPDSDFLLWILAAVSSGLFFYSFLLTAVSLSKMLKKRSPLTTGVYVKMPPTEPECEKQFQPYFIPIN

B1: 1A5.1 (antibody, V domains shown)
VH: DVQLQESGQGLVKPSQSLSLTCSVTGYSITSGYYWNWIRQFPGNKLEWLGYIGYDGSNYYNPSLKNRISITRDTSKNQFFLKLNSVTSEDTATYFCARNYYSGYFDFWGQGTTLTVSS
VL: DIVMTQSQKFMSTSVGDRVSVTCKASQIVGSYVAWYQQKLGQSPKALIYSTSYRHSGVPDRFTGSGSGTDFTLTISNVQSEDLAEYFCQQHHLPLTFGAGTKLEIK
B2: HuJS007-14 (antibody, V domains shown)
VH: QVQLQESGPGLVKPSQTLSLTCTVSGYSITSGYYWNWIRQHPGKGLEWIGYIGYDGSNYYNPSLKSRVTISRDTSKNQFSLKLSSVTAADTAVYFCARNYYSGYFDFWGQGTTLTVSS
VL: DIQMTQSPSSLSASVGDRVTITCQASQNVGTYVAWYQQKPGKAPKPLIYSTSYRYSGVPSRFSGSGSGTDFTFTISSLQPEDIATYFCHQYDTYPLTFGAGTKLELK
B3: HuJS007-15 (antibody, V domains shown)
VH: B2 VH
VL: DIVMTQSPDSLAVSLGERATINCKASQNVGTYVAWYQQKPGQPPKLLIYSTSYRYSGVPDRFSGSGSGTDFTLTISSLQAEDVAVYYCHQYDTYPLTFGQGTKLEIK
B4: HuJS007-16 (antibody, V domains shown)
VH: B2 VH
VL: EIVMTQSPATLSVSPGERATLSCRASQNVGTYVAWYQQKPGQAPRPLIYSTSYRYSGIPARFSGSGSGTEFTLTISSLQSEDFAVYYCHQYDTYPLTFGQGTKLEIK
B5: HuJS007-17 (antibody, V domains shown)
VH: B2 VH
VL: B3 VL with L46P, Y87F
B6: HuJS007-18 (antibody, V domains shown)
VH: B2 VH
VL: B4 VL with R24K, Y87F
B7: HuJS007-19 (antibody, V domains shown)
VH: B2 VH with Q16E, S25T, H41P, P42A
VL: B3 VL with L46P, Y87F, Q100A, I106L
B8: HuJS007-20 (antibody, V domains shown)
VH: B2 VH with Q16E, S25T, H41P, P42A
VL: B2 VL with Q24R, A43V, F73L, I83V
B9: HuJS007-21 (antibody, V domains shown)
VH: B2 VH with Q16E, S25T, H41P, P42A
VL: B2 VL with Q24R, F73L, I83F
B10: HuJS007-22 (antibody, V domains shown)
VH: B2 VH with Q16E, S25T, H41P, P42A
VL: B2 VL with S10F, Q24R, D70E, F73L, I83F
B11: HuJS007-23 (antibody, V domains shown)
VH: B2 VH with Q16E, S25T, H41P, P42A
VL: B2 VL
B12: HuJS007-24 (antibody, V domains shown)
VH: B2 VH with Q16E, S25T, H41P, P42A
VL: B3 VL
B13: HuJS007-25 (antibody, V domains shown)
VH: B2 VH with Q16E, S25T, H41P, P42A
VL: B4 VL
B14: HuJS007-26 (antibody, V domains shown)
VH: B2 VH with Q16E, S25T, H41P, P42A
VL: B3 VL with L46P, Y87F
B15: HuJS007-27 (antibody, V domains shown)
VH: B2 VH with Q16E, S25T, H41P, P42A
VL: B4 VL with R24K, Y87F
B16: HuJS007-28 (antibody, V domains shown)
VH: B2 VH with T23A
VL: B3 VL with L46P, Y87F, Q100A, I106L
B17: HuJS007-29 (antibody, V domains shown)
VH: B2 VH with T23A
VL: B2 VL with Q24R, A43V, F73L, I83V
B18: HuJS007-30 (antibody, V domains shown)
VH: B2 VH with T23A
VL: B2 VL with Q24R, F73L, I83F
B19: HuJS007-31 (antibody, V domains shown)
VH: B2 VH with T23A
VL: B2 VL with S10F, Q24R, D70E, F73L, I83F
B20: HuJS007-32 (antibody, V domains shown)
VH: B2 VH with T23A
VL: B2 VL
B21: HuJS007-33 (antibody, V domains shown)
VH: B2 VH with T23A
VL: B3 VL
B22: HuJS007-34 (antibody, V domains shown)
VH: B2 VH with T23A
VL: B4 VL
B23: HuJS007-35 (antibody, V domains shown)
VH: B2 VH with T23A
VL: B3 VL with L46P, Y87F
B24: HuJS007-36 (antibody, V domains shown)
VH: B2 VH with T23A
VL: B4 VL with R24K, Y87F
B25: HuJS007-37 (antibody, V domains shown)
VH: B2 VH with Y59N, F95Y, N99D, F107S
VL: B3 VL with L46P, Y87F, Q100A, I106L
B26: HuJS007-38 (antibody, V domains shown)
VH: B2 VH with Y59N, F95Y, N99D, F107S
VL: B2 VL with Q24R, A43V, F73L, I83V
B27: HuJS007-39 (antibody, V domains shown)
VH: B2 VH with Y59N, F95Y, N99D, F107S
VL: B2 VL with Q24R, F73L, I83F
B28: HuJS007-40 (antibody, V domains shown)
VH: B2 VH with Y59N, F95Y, N99D, F107S
VL: B2 VL with S10F, Q24R, D70E, F73L, I83F
B29: HuJS007-41 (antibody, V domains shown)
VH: B2 VH with Y59N, F95Y, N99D, F107S
VL: B2 VL
B30: HuJS007-42 (antibody, V domains shown)
VH: B2 VH with Y59N, F95Y, N99D, F107S
VL: B3 VL
B31: HuJS007-43 (antibody, V domains shown)
VH: B2 VH with Y59N, F95Y, N99D, F107S
VL: B4 VL
B32: HuJS007-44 (antibody, V domains shown)
VH: B2 VH with Y59N, F95Y, N99D, F107S
VL: B3 VL with L46P, Y87F
B33: HuJS007-45 (antibody, V domains shown)
VH: B2 VH with Y59N, F95Y, N99D, F107S
VL: B4 VL with R24K, Y87F

Target: huCTLA-4 (human) (UniProt P16410)
Experiment: ForteBio

Binder | binding
B1 | binds

Target: huCTLA-4 ECD (his-tag) (human) (UniProt P16410)
Experiment: ELISA, coated huCTLA-4 his

Binder | binding
B2 | binds
B3 | binds
B4 | binds
B5 | binds
B6 | binds
B7 | binds
B8 | binds
B9 | binds
B10 | binds
B11 | binds
B12 | binds
B13 | binds
B14 | binds
B15 | binds
B16 | binds
B17 | binds

Binder | binding
B18 | binds
B19 | binds
B20 | binds
B21 | binds
B22 | binds
B23 | binds
B24 | binds
B25 | binds
B26 | binds
B27 | binds
B28 | binds
B29 | binds
B30 | binds
B31 | binds
B32 | binds
B33 | binds
